US10857167B2, “Use of oligosaccharide compositions to enhance weight gain” (Children's Hospital Medical Center, priority 2015, dated 2020)
This continues a long series; more values of the same kind are listed elsewhere.

Tested on: distal small bowel gene expression
Assay: RNA sequencing / transcriptional analysis of small bowel 56 days after ICR (2′-FL signature response)
Assay type: in vivo, mouse
Text: Luminal small bowel contents were expressed into AllProtect Tissue Reagent (Qiagen Inc, CA). Bacterial DNA was extracted using the AllPrep DNA/RNA Mini Kit (Qiagen Inc, CA), according to kit instructions and prior to sequencing (described below). Small bowel tissue samples for RNA were placed into RNA Later (Life Technologies, NY). RNA extraction was accomplished following Qiagen RNeasy Plus Kit instruction (Qiagen Inc, CA). All nucleic acid samples were then stored at -80 Celsius until sequenced (described below). Transcriptional analysis was carried out on resected and harvested small bowel samples obtained from operated mice taken to 8 weeks. Murine RNA sequencing libraries were prepared from approximately 1.5 μg RNA using the TruSeq RNA Sample Preparation Kit (Illumina, Calif.) and sequenced using the HiSeq 2000 Sequencing System (Illumina, Calif.) with single-end 50 bp reads. Following removal of primers and barcodes, sequences were aligned to the mm10 genome using reference annotations from UCSC (Rosenbloom et al. (2015) Nucleic acids research 43: […]-681) (n=36,186 entities). Aligned reads were quantified and used to compute reads per kilobase per million mapped reads (RPKM); raw counts were then normalized using the DESeq algorithm and each harvested sample was baselined to its own resected sample. A filter was applied to the data, requiring at least three reads in all samples of at least one of the four experimental conditions (n=14,489 entities). The data discussed in this publication have been deposited in NCBI's Gene Expression Omnibus and are accessible through NCBI Gene Expression Omnibus (GEO) Series accession number GSE72590. Edgar et al. (2002) Nucleic acids research 30: 207-210. In order to characterize the impact of 2'-FL supplementation while accounting for the effect of ileoecal resection, a t-test was applied between resected and harvested samples within control and experimental animals. Significance was set at a p-value of ≤0.05 and a fold change of 3, which generated 2,576 differentially regulated entities across two comparisons. Gene set unions and intersections of the control and experimental gene sets were identified through Venn diagrams. From the master list, the gene list specific to animals supplemented with 2'-FL were removed in order to identify genes differentially regulated only by ICR (n=546 entities); this gene set characterizes the adaptive response. Further, the 2'-FL response (n=2,030 entities) was identified by removing the adaptive response signature described above from the master list, leaving only genes regulated by 2'-FL supplementation after ICR which were not found in the non-supplemented adaptive response. Heatmaps were generated using hierarchical clustering with the Pearson's Centered distance metric and the average linkage rule; both entities and samples were clustered. All genomic analyses described above were performed in Strand NGS (Strand Life Sciences, CA). Gene list functional enrichment was initially discovered using ToppFun, a member of the ToppGene Suite. Chen et al. (2009) Nucleic acids research 37: […]-311. No statistical correction was selected. Gene lists were further analyzed using ClueGO, a plugin for Cytoscape designed to decipher functionally grouped gene ontology and pathway annotation networks. Bindea et al. (2009) Bioinformatics 25: 1091-1093. At the time of data analysis, the annotation files were updated from sources to Jan. 1, 2015. “GO Term Fusion” was enabled to manage ontologic term redundancy and network specificity was set to medium. Results were restricted to pathways with p≤0.05 using Benjamini-Hochberg correction and Kappa scoring was set to 0.4. Biocyc annotations were assigned a rectangle, gene ontology biologic processes were assigned an ellipse, and […] annotations were assigned a diamond shape. No meaning was assigned to size or color. […]

## C[C@@H]1O[C@@H](O[C@H]2[C@H](O[C@H]3[C@H](O)[C@@H](O)C(O)O[C@@H]3CO)O[C@H](CO)[C@H](O)[C@@H]2O)[C@@H](O)[C@H](O)[C@@H]1O (stereo partly shown) [2′-FL, 2′-fucosyllactose]
Gene Lmln
  Fold Change (Pre- to Post-op): −5.849
Gene Lpcat1
  Fold Change (Pre- to Post-op): −3.49
Gene Lphn1
  Fold Change (Pre- to Post-op): −5.839
Gene Lpin1
  Fold Change (Pre- to Post-op): −9.312
Gene Lpl
  Fold Change (Pre- to Post-op): −6.21
Gene Lrig3
  Fold Change (Pre- to Post-op): −3.766
Gene Lrp3
  Fold Change (Pre- to Post-op): −4.783
Gene Lrp4
  Fold Change (Pre- to Post-op): −3.166
Gene Lrp5
  Fold Change (Pre- to Post-op): −4.491
Gene Lrp8
  Fold Change (Pre- to Post-op): −3.215
Gene Lrrc32
  Fold Change (Pre- to Post-op): −5.787
Gene Lrrc47
  Fold Change (Pre- to Post-op): −4.268
Gene Ltbp3
  Fold Change (Pre- to Post-op): −5.229
Gene Ltbp4
  Fold Change (Pre- to Post-op): −7.119
Gene Ltk
  Fold Change (Pre- to Post-op): −3.671
Gene Ly9
  Fold Change (Pre- to Post-op): −4.129
Gene Ly75
  Fold Change (Pre- to Post-op): −3.155
Gene Mab21l2
  Fold Change (Pre- to Post-op): −3.674
Gene Macc1
  Fold Change (Pre- to Post-op): −3.441
Gene Madd
  Fold Change (Pre- to Post-op): −3.432
Gene Magee1
  Fold Change (Pre- to Post-op): −6.389
Gene Malat1
  Fold Change (Pre- to Post-op): −5.742
Gene Maml1
  Fold Change (Pre- to Post-op): −3.799
Gene Maml2
  Fold Change (Pre- to Post-op): −3.955
Gene Maml3
  Fold Change (Pre- to Post-op): −4.76
Gene Mamld1
  Fold Change (Pre- to Post-op): −4.477
Gene Man1c1
  Fold Change (Pre- to Post-op): −7.486
Gene Man2a2
  Fold Change (Pre- to Post-op): −4.11
Gene Man2b1
  Fold Change (Pre- to Post-op): −3.221
Gene Map1a
  Fold Change (Pre- to Post-op): −3.571
Gene Map1s
  Fold Change (Pre- to Post-op): −3.641
Gene Map3k9
  Fold Change (Pre- to Post-op): −4.047
Gene Map4
  Fold Change (Pre- to Post-op): −3.068
Gene Map4k2
  Fold Change (Pre- to Post-op): −3.524
Gene Mapk4
  Fold Change (Pre- to Post-op): −4.411
Gene Mapk7
  Fold Change (Pre- to Post-op): −4.177
Gene Mapre2
  Fold Change (Pre- to Post-op): −3.082
Gene Mark1
  Fold Change (Pre- to Post-op): −3.566
Gene Mark4
  Fold Change (Pre- to Post-op): −6.451
Gene Mast2
  Fold Change (Pre- to Post-op): −3.485
Gene Mast4
  Fold Change (Pre- to Post-op): −3.888
Gene Mbd6
  Fold Change (Pre- to Post-op): −5.762
Gene Mbp
  Fold Change (Pre- to Post-op): −3.221
Gene Mcf2l
  Fold Change (Pre- to Post-op): −3.174
Gene Med12
  Fold Change (Pre- to Post-op): −6.66
Gene Med13l
  Fold Change (Pre- to Post-op): −4.75
Gene Med28
  Fold Change (Pre- to Post-op): 3.032
Gene Mef2d
  Fold Change (Pre- to Post-op): −4.046
Gene Megf6
  Fold Change (Pre- to Post-op): −4.097
Gene Megf8
  Fold Change (Pre- to Post-op): −4.517
Gene Megf9
  Fold Change (Pre- to Post-op): −3.69
Gene Mep1a
  Fold Change (Pre- to Post-op): −5.171
Gene Mfhas1
  Fold Change (Pre- to Post-op): −6.536
Gene Mfsd6
  Fold Change (Pre- to Post-op): −3.117
Gene Mgat5
  Fold Change (Pre- to Post-op): −5.622
Gene Mical2
  Fold Change (Pre- to Post-op): −4.656
Gene Mid1
  Fold Change (Pre- to Post-op): −3.048
Gene Midn
  Fold Change (Pre- to Post-op): −4.128
Gene Mink1
  Fold Change (Pre- to Post-op): −3.214
Gene Mira
  Fold Change (Pre- to Post-op): −5.084
Gene Mllt6
  Fold Change (Pre- to Post-op): −4.66
Gene Mlph
  Fold Change (Pre- to Post-op): −3.283
Gene Mlxip
  Fold Change (Pre- to Post-op): −3.3
Gene Mmp2
  Fold Change (Pre- to Post-op): −3.938
Gene Mmp14
  Fold Change (Pre- to Post-op): −3.777
Gene Mmrn2
  Fold Change (Pre- to Post-op): −7.756
Gene Mn1
  Fold Change (Pre- to Post-op): −5.932
Gene Mnt
  Fold Change (Pre- to Post-op): −4.621
Gene Mpdz
  Fold Change (Pre- to Post-op): −6.001
Gene Mpp2
  Fold Change (Pre- to Post-op): −5.693
Gene Mrap
  Fold Change (Pre- to Post-op): −3.915
Gene Mrvi1
  Fold Change (Pre- to Post-op): −3.235
Gene Msi1
  Fold Change (Pre- to Post-op): −5.962
Gene Msn
  Fold Change (Pre- to Post-op): −3.809
Gene Mtss1l
  Fold Change (Pre- to Post-op): −6.11
Gene Mvb12b
  Fold Change (Pre- to Post-op): −3.459
Gene Mxra8
  Fold Change (Pre- to Post-op): −3.347
Gene Myadm
  Fold Change (Pre- to Post-op): −3.606
Gene Myh9
  Fold Change (Pre- to Post-op): −5.591
Gene Myh11
  Fold Change (Pre- to Post-op): −5.837
Gene Myh14
  Fold Change (Pre- to Post-op): −4.91
Gene Myo1b
  Fold Change (Pre- to Post-op): −3.028
Gene Myo1e
  Fold Change (Pre- to Post-op): −3.792
Gene Myo1f
  Fold Change (Pre- to Post-op): −4.046
Gene Myo5a
  Fold Change (Pre- to Post-op): −3.124
Gene Myo7b
  Fold Change (Pre- to Post-op): −4.215
Gene Myo18a
  Fold Change (Pre- to Post-op): −3.82
Gene Myo1d
  Fold Change (Pre- to Post-op): −4.145
Gene Myof
  Fold Change (Pre- to Post-op): −3.686
Gene Mypop
  Fold Change (Pre- to Post-op): −4.666
Gene Myrf
  Fold Change (Pre- to Post-op): −3.19
Gene N4bp2
  Fold Change (Pre- to Post-op): −4.664
Gene Nat8l
  Fold Change (Pre- to Post-op): −5.813
Gene Nav1
  Fold Change (Pre- to Post-op): −4.981
Gene Nbea
  Fold Change (Pre- to Post-op): −3.203
Gene Nbr1
  Fold Change (Pre- to Post-op): −3.474
Gene Ncapd2
  Fold Change (Pre- to Post-op): −4.59
Gene Ncdn
  Fold Change (Pre- to Post-op): −6.446
Gene Nckap1l
  Fold Change (Pre- to Post-op): −3.892
Gene Ncl
  Fold Change (Pre- to Post-op): −3.283
Gene Ncoa1
  Fold Change (Pre- to Post-op): −3.068
Gene Ncoa6
  Fold Change (Pre- to Post-op): −3.207
Gene Ncor2
  Fold Change (Pre- to Post-op): −6.482
Gene Nedd4
  Fold Change (Pre- to Post-op): −4.292
Gene Nefm
  Fold Change (Pre- to Post-op): −4.086
Gene Negr1
  Fold Change (Pre- to Post-op): −5.117
Gene Nell1
  Fold Change (Pre- to Post-op): −5.436
Gene Nell2
  Fold Change (Pre- to Post-op): −4.751
Gene Neurl1a
  Fold Change (Pre- to Post-op): −3.646
Gene Nfat5
  Fold Change (Pre- to Post-op): −3.212
Gene Nfatc1
  Fold Change (Pre- to Post-op): −3.71
Gene Nfatc2
  Fold Change (Pre- to Post-op): −5.433
Gene Nfatc4
  Fold Change (Pre- to Post-op): −3.134
Gene Nfic
  Fold Change (Pre- to Post-op): −6.107
Gene Nhsl2
  Fold Change (Pre- to Post-op): −8.108
Gene Nid1
  Fold Change (Pre- to Post-op): −3.504
Gene Nid2
  Fold Change (Pre- to Post-op): −4.055
Gene Nol6
  Fold Change (Pre- to Post-op): −4.067
Gene Nos1
  Fold Change (Pre- to Post-op): −3.203
Gene Nos3
  Fold Change (Pre- to Post-op): −5.219
Gene Notch3
  Fold Change (Pre- to Post-op): −7.086
